PubChem BioAssay AID652243 – Drosophila RNAi Screening Center, 2013
The deposit covers about 24,000 reagents; this is a random part of those with a known target gene and a result. Of all reagents, 246 (1%) were called active. 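Plates not normalised; calls are printed but the firefly/Renilla ratio behind them is not deposited; fold cut for lowering reported inconsistently.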 Raw values are not corrected between plates. No sequences are given here. Not given: the amount of reagent.

Assay: 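Fly genes required for human androgen receptor driven transcription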 (primary screen)
Cells: Drosophila S2R+ cells
Reagent: long dsRNA against Drosophila genes
Time to read-out: 72 h (48 h, then 24 h hormone)
Conditions: synthetic androgen R1881 at 10 nM for 24 h
Read-out: 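Per-well raw luminescence of the androgen-driven firefly reporter and of the Renilla control, two replicates each, without normalisation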
Reading the numbers: firefly reporter light: higher = more light from androgen-responsive reporter; Renilla control light: higher = more constitutive control signal (cell number, transfection)
Rule for the call: 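Hit when the log firefly-to-Renilla ratio dropped or increased by a fixed fold versus the mean of GFP or LacZ controls across duplicate plates; lowering cut given as 1.5 and as 3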
Meaning of the calls: active = hit: reporter lowered or raised; inactive = no hit

| gene | DRSC id | firefly reporter light, replicate 1 | firefly reporter light, replicate 2 | Renilla control light, replicate 1 | Renilla control light, replicate 2 | activity call |
| --- | --- | --- | --- | --- | --- | --- |
| CG7492 | DRSC10855 | 8.21e5 | 4.17e5 | 1.24e6 | 9.50e5 | inactive |
| CG44836 | DRSC09915 | 2.60e5 | 1.91e5 | 2.05e6 | 1.92e6 | inactive |
| CG44836 | DRSC26572 | 2.60e5 | 2.13e5 | 6.24e5 | 6.29e5 | inactive |
| CG31988 | DRSC22491 | 4.63e5 | 7.68e5 | 6.62e5 | 1.07e6 | inactive |
| hrg (hiiragi) | DRSC07502 | 52684 | 1.50e5 | 6.94e5 | 1.23e6 | inactive |
| Rhau (RHAU helicase) | DRSC03200 | 1.34e6 | 1.13e6 | 2.04e6 | 1.78e6 | inactive |
| Rhau (RHAU helicase) | DRSC27042 | 3.74e5 | 2.64e5 | 9.36e5 | 6.69e5 | inactive |
| coil (coilin) | DRSC07242 | 6.95e5 | 7.57e5 | 1.96e6 | 2.00e6 | inactive |
| coil (coilin) | DRSC26055 | 4.78e5 | 3.23e5 | 6.69e5 | 5.83e5 | inactive |
| SmydA-4 (SET and MYND domain containing, arthropod-specific, member 4) | DRSC19390 | 2.54e5 | 1.96e5 | 1.76e6 | 1.87e6 | inactive |
| SmydA-4 (SET and MYND domain containing, arthropod-specific, member 4) | DRSC21866 | 7.73e5 | 7.49e5 | 1.70e6 | 1.95e6 | inactive |
| SmydA-4 (SET and MYND domain containing, arthropod-specific, member 4) | DRSC26517 | 2.67e5 | 3.49e5 | 6.14e5 | 6.16e5 | inactive |
| cnk (connector enhancer of ksr) | DRSC07595 | 1.06e5 | 1.43e5 | 2.38e6 | 2.38e6 | inactive |
| Traf-like (TNF-receptor-associated factor-like) | DRSC19894 | 72901 | 1.40e5 | 6.00e5 | 6.17e5 | inactive |
| nudC | DRSC11096 | 2.97e5 | 1.70e5 | 2.11e6 | 2.02e6 | inactive |
| nudC | DRSC11097 | 2.60e5 | 2.74e5 | 2.56e6 | 2.48e6 | inactive |
| CG15650 | DRSC04241 | 2.18e5 | 2.17e5 | 1.87e6 | 1.54e6 | inactive |
| Rx (Retinal Homeobox) | DRSC03837 | 2.64e5 | 2.96e5 | 7.39e5 | 6.49e5 | inactive |
| Rx (Retinal Homeobox) | DRSC04652 | 3.72e5 | 4.25e5 | 2.81e6 | 1.86e6 | inactive |
| Rx (Retinal Homeobox) | DRSC25248 | 2.43e5 | 2.44e5 | 4.64e5 | 2.80e5 | inactive |
| CG13671 | DRSC10030 | 9.42e5 | 1.08e6 | 9.01e5 | 1.43e6 | inactive |
| Flacc (Fl(2)d-associated complex component) | DRSC20040 | 88767 | 65817 | 9.71e5 | 1.02e6 | inactive |
| Flacc (Fl(2)d-associated complex component) | DRSC25501 | 6.05e5 | 5.76e5 | 1.11e6 | 8.73e5 | inactive |
| Skel (Skeletor) | DRSC14905 | 86215 | 77697 | 1.23e6 | 1.56e6 | inactive |
| Skel (Skeletor) | DRSC14906 | 48510 | 71178 | 2.83e5 | 3.07e5 | inactive |
| CG6873 | DRSC20014 | 2.35e5 | 1.07e5 | 3.24e5 | 1.27e5 | inactive |
| Alp8 (Alkaline phosphatase 8) | DRSC04353 | 1.47e5 | 2.07e5 | 2.07e6 | 2.35e6 | active |
| Alp8 (Alkaline phosphatase 8) | DRSC27635 | 2.47e5 | 3.39e5 | 3.46e5 | 4.57e5 | inactive |
| Alp8 (Alkaline phosphatase 8) | DRSC39300 | – | – | – | – | inactive |
| CG31897 | DRSC01020 | 1.82e5 | 2.58e5 | 4.43e5 | 4.72e5 | inactive |
| side-III (sidestep III) | DRSC12155 | 43913 | 31652 | 1.33e6 | 9.23e5 | inactive |
| side-III (sidestep III) | DRSC12264 | 85461 | 1.06e5 | 2.58e6 | 2.02e6 | inactive |
| side-III (sidestep III) | DRSC24955 | 1.20e6 | 8.70e5 | 8.27e5 | 6.71e5 | inactive |
| side-III (sidestep III) | DRSC30000 | 2.50e5 | 2.01e5 | 1.14e6 | 1.40e6 | inactive |
| E(Pc) (Enhancer of Polycomb) | DRSC05281 | 1.99e5 | 2.29e5 | 3.73e5 | 3.97e5 | inactive |
| E(Pc) (Enhancer of Polycomb) | DRSC07408 | 2.60e5 | 1.96e5 | 1.20e6 | 1.17e6 | inactive |
| rdgC (retinal degeneration C) | DRSC11387 | 2.46e5 | 2.36e5 | 2.10e6 | 3.07e6 | active |
| rdgC (retinal degeneration C) | DRSC36628 | – | – | – | – | inactive |
| rdgC (retinal degeneration C) | DRSC36629 | – | – | – | – | inactive |
| CG11069 | DRSC14289 | 73194 | 64737 | 4.64e5 | 6.08e5 | inactive |
| CG1603 | DRSC06602 | 8.42e5 | 1.19e6 | 1.87e6 | 2.93e6 | inactive |
| CG1603 | DRSC27982 | 8.51e5 | 3.89e5 | 2.87e6 | 1.85e6 | inactive |
| CG14609 | DRSC12553 | 1.46e5 | 1.60e5 | 2.39e6 | 1.93e6 | inactive |
| Rpn3 (Regulatory particle non-ATPase 3) | DRSC03318 | 1.64e5 | 1.51e5 | 1.92e6 | 1.43e6 | inactive |
| Rpn3 (Regulatory particle non-ATPase 3) | DRSC29446 | 2.83e5 | 3.95e5 | 5.43e5 | 5.43e5 | inactive |
| CG33775 | DRSC38873 | 8.32e5 | 7.73e5 | 2.07e6 | 1.31e6 | inactive |
| CR30029 (pseudo) | DRSC06724 | 3.87e5 | 3.46e5 | 2.25e6 | 2.00e6 | inactive |
| Gar1 (Gar1 ribonucleoprotein) | DRSC04441 | 2.38e5 | 2.64e5 | 1.70e6 | 1.37e6 | inactive |
| Gar1 (Gar1 ribonucleoprotein) | DRSC25331 | 7.15e5 | 6.92e5 | 8.53e5 | 9.26e5 | inactive |
| Tpr2 (Tetratricopeptide repeat protein 2) | DRSC03461 | 8.10e5 | 9.45e5 | 1.36e6 | 2.11e6 | inactive |
| Polr3B (RNA polymerase III subunit B) | DRSC07536 | 1.15e6 | 1.33e6 | 1.45e6 | 1.49e6 | inactive |
| thoc6 | DRSC10528 | 7.47e5 | 8.00e5 | 1.36e6 | 1.51e6 | inactive |
| CG17343 | DRSC02606 | 1.91e5 | 2.26e5 | 2.31e6 | 2.64e6 | inactive |
| CG17343 | DRSC22807 | 2.73e5 | 5.11e5 | 5.43e5 | 8.38e5 | inactive |
| CG17343 | DRSC28706 | 2.08e5 | 2.58e5 | 5.65e5 | 5.66e5 | inactive |
| CG7530 | DRSC16255 | 6.03e5 | 6.02e5 | 1.56e6 | 1.74e6 | inactive |
| CG7530 | DRSC25476 | 6.08e5 | 6.65e5 | 1.10e6 | 1.26e6 | inactive |
| TTLL6B (Tubulin tyrosine ligase-like 6B) | DRSC15932 | 2.41e5 | 1.80e5 | 2.14e6 | 1.99e6 | inactive |
| TTLL6B (Tubulin tyrosine ligase-like 6B) | DRSC26754 | 3.79e5 | 2.61e5 | 3.88e5 | 2.35e5 | inactive |

Part of the list above, set out differently:
{"gene":"CG17343","DRSC id":"DRSC28706","firefly reporter light, replicate 1":2.08e5,"firefly reporter light, replicate 2":2.58e5,"Renilla control light, replicate 1":5.65e5,"Renilla control light, replicate 2":5.66e5,"activity call":"inactive"}
{"gene":"CG7530","DRSC id":"DRSC16255","firefly reporter light, replicate 1":6.03e5,"firefly reporter light, replicate 2":6.02e5,"Renilla control light, replicate 1":1.56e6,"Renilla control light, replicate 2":1.74e6,"activity call":"inactive"}
{"gene":"CG7530","DRSC id":"DRSC25476","firefly reporter light, replicate 1":6.08e5,"firefly reporter light, replicate 2":6.65e5,"Renilla control light, replicate 1":1.10e6,"Renilla control light, replicate 2":1.26e6,"activity call":"inactive"}
